Data reported in paper PMC5215799.
Results are given in words; binding and its absence hold for the method and conditions named. In cells and extracts the contact can be indirect. Here binding means that the protein was enriched with, or labelled near, the bait; the list need not be complete.

By UniProt entry, the sequences of proteins in these tests, tags left out. Residues count along the entry.
UniProt P08113, residues 22-802: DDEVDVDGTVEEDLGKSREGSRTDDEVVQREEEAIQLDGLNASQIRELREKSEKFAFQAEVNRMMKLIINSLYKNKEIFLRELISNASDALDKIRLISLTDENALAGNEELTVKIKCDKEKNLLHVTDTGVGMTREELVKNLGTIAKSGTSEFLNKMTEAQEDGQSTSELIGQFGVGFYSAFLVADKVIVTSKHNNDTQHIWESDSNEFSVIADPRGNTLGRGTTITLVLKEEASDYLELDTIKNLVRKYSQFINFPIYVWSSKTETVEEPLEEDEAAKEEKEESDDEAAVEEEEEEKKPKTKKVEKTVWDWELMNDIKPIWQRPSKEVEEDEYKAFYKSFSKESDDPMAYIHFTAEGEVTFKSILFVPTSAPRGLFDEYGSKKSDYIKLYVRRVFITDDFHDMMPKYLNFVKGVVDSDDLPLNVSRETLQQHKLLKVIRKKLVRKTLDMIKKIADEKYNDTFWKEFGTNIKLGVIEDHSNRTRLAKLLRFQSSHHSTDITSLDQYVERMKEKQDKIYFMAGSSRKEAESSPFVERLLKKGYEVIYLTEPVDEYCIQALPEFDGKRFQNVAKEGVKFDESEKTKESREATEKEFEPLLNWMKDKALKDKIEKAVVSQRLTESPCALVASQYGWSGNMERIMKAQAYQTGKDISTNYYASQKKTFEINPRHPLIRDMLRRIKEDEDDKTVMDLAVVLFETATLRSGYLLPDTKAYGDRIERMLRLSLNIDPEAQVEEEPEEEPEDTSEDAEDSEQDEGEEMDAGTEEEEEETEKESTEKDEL

B1: MesD (protein, UniProt Q9ERE7 30-224)
chain: ADTPGEATPPPRKKKDIRDYNDADMARLLEQWEKDDDIEEGDLPEHKRPSAPIDFSKLDPGKPESILKMTKKGKTLMMFVTVSGNPTEKETEEITSLWQGSLFNANYDVQRFIVGSDRAIFMLRDGSYAWEIKDFLVSQDRCAEVTLEGQMYPGKGGGSKEKNKTKPEKAKKKEGDPKPRASKEDNRAGSRREDL
B2: Psmb3 (protein, UniProt Q9R1P1 1-205)
chain: MSIMSYNGGAVMAMKGKNCVAIAADRRFGIQAQMVTTDFQKIFPMGDRLYIGLAGLATDVQTVAQRLKFRLNLYELKEGRQIKPYTLMSMVANLLYEKRFGPYYTEPVIAGLDPKTFKPFICSLDLIGCPMVTDDFVVSGTCSEQMYGMCESLWEPNMDPEHLFETISQAMLNAVDRDAVSGMGVIVHVIEKDKITTRTLKARMD
B3: Caprin1 (protein, UniProt Q60865 1-707)
chain: MPSATSHSGSGSKSSGPPPPSGSSGSEAAAGAAAPASQHPATGTGAVQTEAMKQILGVIDKKLRNLEKKKGKLDDYQERMNKGERLNQDQLDAVSKYQEVTNNLEFAKELQRSFMALSQDIQKTIKKTARREQLMREEAEQKRLKTVLELQYVLDKLGDDDVRTDLKQGLSGVPILSEEELSLLDEFYKLVDPERDMSLRLNEQYEHASIHLWDLLEGKEKPVCGTTYKALKEIVERVFQSNYFDSTHNHQNGLCEEEEAASAPTVEDQVAEAEPEPAEEYTEQSEVESTEYVNRQFMAETQFSSGEKEQVDEWTVETVEVVNSLQQQPQAASPSVPEPHSLTPVAQSDPLVRRQRVQDLMAQMQGPYNFIQDSMLDFENQTLDPAIVSAQPMNPTQNMDMPQLVCPQVHSESRLAQSNQVPVQPEATQVPLVSSTSEGYTASQPLYQPSHATEQRPQKEPMDQIQATISLNTDQTTASSSLPAASQPQVFQAGTSKPLHSSGINVNAAPFQSMQTVFNMNAPVPPANEPETLKQQSQYQATYNQSFSSQPHQVEQTELQQDQLQTVVGTYHGSQDQPHQVPGNHQQPPQQNTGFPRSSQPYYNSRGVSRGGSRGARGLMNGYRGPANGFRGGYDGYRPSFSNTPNSGYSQSQFTAPRDYSGYQRDGYQQNFKRGSGQSGPRGAPRGRGGPPRPNRGMPQMNTQQVN
B4: Plekho2 (protein, UniProt Q8K124 1-495)
chain: MEEESIKEGSEKPRGARTADKAGWIKKSSGGLLGLWKDRYLLLCQAQLLVYENEDEQKCVETVELGSYEKCQDLRTLLKRKHHRFILLRSPGNKVSDIKFQAPSGEEKESWIKALNEGINRGKNKAFDEVKVDKTCALEHVTRNRVRGGQRRRPPTRIHLKEVASAASDGLSRLDLDVPDSGPPVFAPLSDISEDQPQEPPRALMPPVKPSPGPETSAVEDSKETPAGERALTPDSASSGANPESQEDAETPAKEDSDVKSLPNSTLSEKLKVSWENPSPEKPSAPESAQLSSSETPEATPRESKKPPAPPPKILSEKMKACMSGVDASGSSQSSEAPETTSPEPTQVSVNGMDDGPESALQAMGIPGPAPEDAAASPALPFSDLPSQFHPRSSSLGDLLRESPQHPRLPKEKLYRAQLEVKVASKQTEKLLNQVLGSEPPPVCAESLLSQAVEQLRQATQVLQEMRDLGELNQETPGLVQKRKELVTLYRRSAP
B5: CNPY3 (protein, UniProt Q9DAU1 27-276)
chain: APKLGPSPAGAEETDWVRLPSKCEVCKYVAVELKSAFEETGKTKEVIDTGYGILDGKGSGVKYTKSDLRLIEVTETICKRLLDYSLHKERTGSNRFAKGMSETFETLHNLVHKGVKVVMDIPYELWNETSAEVADLKKQCDVLVEEFEEVIEDWYRNHQEEDLTEFLCANHVLKGKDTSCLAERWSGKKGDIASLGGKKSKKKRSGVKGSSSGSSKQRKELGGLGEDANAEEEEGVQKASPLPHSPPDEL
B6: CNPY2 (protein, UniProt Q9QXT0 21-182)
chain: RRSQDLHCGACRALVDELEWEIARVDPKKTIQMGSFRINPDGSQSVVEVPYARSEAHLTELLEEVCDRMKEYGEQIDPSTHRKNYVRVVSRNGESSELDLQGIRIDSDISGTLKFACESIVEEYEDELIEFFSREADNVKDKLCSKRTDLCDHALHRSHDEL
B7: CNPY4 (protein, UniProt Q8BQ47 28-245)
chain: EATKEEEDDTERLPSKCEVCKLLSMELQEALSRTGRSREVLELGQVLDTGKRKRHVPYSLSETRLEEALENLCERILDYNVHAERKGSLRYAKGQSQTMATLKGLVQKGVKVDLGIPLELWDEPSVEVTFLKKQCETMLEEFEDVVGDWYFHHQEQPLQHFLCERHVLPASETACLREAWTGKEKISDGQEEADDEEEEEEEEITKTSGNPKHDPEDL
B8: Ganab (protein, UniProt Q8BHN3 33-944)
chain: VDRSNFKTCDESSFCKRQRSIRPGLSPYRALLDTLQLGPDALTVHLIHEVTKVLLVLELQGLQKNMTRIRIDELEPRRPRYRVPDVLVADPPTARLSVSGRDDNSVELTVAEGPYKIILTAQPFRLDLLEDRSLLLSVNARGLMAFEHQRAPRVPQESKDPAEGNGAQPEATPGDGDKPEETQEKAEKDEPGAWEETFKTHSDSKPYGPTSVGLDFSLPGMEHVYGIPEHADSLRLKVTEGGEPYRLYNLDVFQYELNNPMALYGSVPVLLAHSFHRDLGIFWLNAAETWVDISSNTAGKTLFGKMLDYLQGSGETPQTDIRWMSESGIIDVFLMLGPSVFDVFRQYASLTGTQALPPLFSLGYHQSRWNYRDEADVLEVDQGFDDHNMPCDVIWLDIEHADGKRYFTWDPTRFPQPLNMLEHLASKRRKLVAIVDPHIKVDSGYRVHEELRNHGLYVKTRDGSDYEGWCWPGSASYPDFTNPRMRAWWSNMFSFDNYEGSAPNLYVWNDMNEPSVFNGPEVTMLKDAVHYGGWEHRDIHNIYGLYVHMATADGLIQRSGGIERPFVLSRAFFSGSQRFGAVWTGDNTAEWDHLKISIPMCLSLALVGLSFCGADVGGFFKNPEPELLVRWYQMGAYQPFFRAHAHLDTGRREPWLLASQYQDAIRDALFQRYSLLPFWYTLFYQAHKEGFPVMRPLWVQYPEDMSTFSIEDQFMLGDALLIHPVSDAGAHGVQVYLPGQEEVWYDIQSYQKHHGPQTLYLPVTLSSIPVFQRGGTIVPRWMRVRRSSDCMKDDPITLFVALSPQGTAQGELFLDDGHTFNYQTRHEFLLRRFSFSGSTLVSSSADPKGHLETPIWIERVVIMGAGKPAAVVLQTKGSPESRLSFQHDPETSVLILRKPGVSVASDWSIHLR
B9: Dnajc3 (protein, UniProt Q91YW3 32-504)
chain: GVNADVEKHLELGKKLLAAGQLADALSQFHAAVDGDPDNYIAYYRRATVFLAMGKSKAALPDLTKVIALKMDFTAARLQRGHLLLKQGKLDEAEDDFKKVLKSNPSEQEEKEAESQLVKADEMQRLRSQALDAFDGADYTAAITFLDKILEVCVWDAELRELRAECFIKEGEPRKAISDLKAASKLKSDNTEAFYKISTLYYQLGDHELSLSEVRECLKLDQDHKRCFAHYKQVKKLNKLIESAEELIRDGRYTDATSKYESVMKTEPSVAEYTVRSKERICHCFSKDEKPVEAIRICSEVLQMEPDNVNALKDRAEAYLIEEMYDEAIQDYEAAQEHNENDQQIREGLEKAQRLLKQSQKRDYYKILGVKRNAKKQEIIKAYRKLALQWHPDNFQNEEEKKKAEKKFIDIAAAKEVLSDPEMRKKFDDGEDPLDAESQQGGGGNPFHRSWNSWQGFNPFSSGGPFRFKFHFN
B10: Dnajc10 (protein, UniProt Q9DC23 33-793)
chain: DQNFYSLLGVSKTASSREIRQAFKKLALKLHPDKNPNNPNAHGDFLKINRAYEVLKDEDLRKKYDKYGEKGLEDNQGGQYESWSYYRYDFGIYDDDPEIITLERREFDAAVNSGELWFVNFYSPGCSHCHDLAPTWREFAKEVDGLLRIGAVNCGDDRMLCRMKGVNSYPSLFIFRSGMAAVKYNGDRSKESLVAFAMQHVRSTVTELSTGNFVNAIETAFAAGVGWLITFCSKGEDCLTSQTRLRLSGMLDGLVNVGWVDCDAQDSLCKSLDTTASTTAYFPPGATLNDREKSSVLFLNSLDAKEIYMEIIHNLPDFELLSANQLEDRLAHHRWLVFFHFGKNENANDPELKKLKTLLKNEHIQVGRFDCSSAPGICSDLYVFQPCLAVFKGQGTKEYEIHHGKKILYDILAFAKESVNSHVTTLGPQNFPASDKEPWLVDFFAPWCPPCRALLPELRKASTLLYGQLKVGTLDCTIHEGLCNMYNIQAYPTTVVFNQSSIHEYEGHHSAEQILEFIEDLRNPSVVSLTPSTFNELVKQRKHDEVWMVDFYSPWCHPCQVLMPEWKRMARTLTGLINVGSVDCQQYHSFCTQENVQRYPEIRFYPQKSSKAYQYHSYNGWNRDAYSLRSWGLGFLPQASIDLTPQTFNEKVLQGKTHWVVDFYAPWCGPCQNFAPEFELLARMIKGKVRAGKVDCQAYPQTCQKAGIKAYPSVKLYQYERAKKSIWEEQINSRDAKTIAALIYGKLETLQSQVKRNKDEL
B11: Ero1I (protein, UniProt Q8R180 24-464)
chain: EERRPETAAQRCFCQVSGYLDDCTCDVETIDKFNNYRLFPRLQKLLESDYFRYYKVNLKKPCPFWNDINQCGRRDCAVKPCHSDEVPDGIKSASYKYSEEANRIEECEQAERLGAVDESLSEETQKAVLQWTKHDDSSDSFCEIDDIQSPDAEYVDLLLNPERYTGYKGPDAWRIWSVIYEENCFKPQTIQRPLASGRGKSKENTFYNWLEGLCVEKRAFYRLISGLHASINVHLSARYLLQDTWLEKKWGHNVTEFQQRFDGILTEGEGPRRLRNLYFLYLIELRALSKVLPFFERPDFQLFTGNKVQDAENKALLLEILHEIKSFPLHFDENSFFAGDKNEAHKLKEDFRLHFRNISRIMDCVGCFKCRLWGKLQTQGLGTALKILFSEKLIANMPESGPSYEFQLTRQEIVSLFNAFGRISTSVRELENFRHLLQNVH
B12: Erp44 (protein, UniProt Q9D1Q6 30-406)
chain: EIASLDSENIDEILNNADVALVNFYADWCRFSQMLHPIFEEASDVIKEEYPDKNQVVFARVDCDQHSDIAQRYRISKYPTLKLFRNGMMMKREYRGQRSVKALADYIRQQKSNPVHEIQSLDEVTNLDRSKRNIIGYFEQKDSENYRVFERVASILHDDCAFLSAFGDLSKPERYNGDNVIYKPPGRSAPDMVYLGSMTNFDVTYNWIQDKCVPLVREITFENGEELTEEGLPFLILFHMKDDTESLEIFQNEVARQLISEKGTINFLHADCDKFRHPLLHIQKTPADCPVIAIDSFRHMYVFGDFKDVLIPGKLKQFVFDLHSGKLHREFHHGPDPTDTAPGEQDQDVASSPPESSFQKLAPSEYRYTLLRDRDEL
B13: Necap2 (protein, UniProt Q9D1J1 1-266)
chain: MEESEYESVLCVKPEVHVYRIPPRATNRGYRASEWQLDQPSWSGRLRITAKGKVAYIKLEDRTSGELFAQAPVDQFPGTAVESVTDSSRYFVIRIEDGNGRRAFIGLGFGDRGDAFDFNVALQDHFKWVKQQCEFAKQAQNPDEGPKLDLGFKDGQTIKINIANMRKKEGAAGTPRARPTSAGGLSLLPPPPGGKSSTVIPPSGEQLSVGGSLVQPAVVSGSGGATELWPQSKPAAAATADIWGDFTKSTGSPSSQSQPGTGWVQF

target: HA-tagged gp96 (UniProt P08113); assay: affinity purification with mass spectrometry; RIPA lysate (500 μg) of preB leukemia cells stably expressing HA-tagged gp96, precleared with normal IgG on protein G beads, then anti-HA (clone HA-7) on protein G beads 3 hours at 4°C; eluate on SDS-PAGE, LC-MS/MS

Binder	binding
B1	binds
B2	binds
B3	binds
B4	binds
B5	binds
B6	binds
B7	binds
B8	binds
B9	binds
B10	binds
B11	binds
B12	binds
B13	binds
